According to publication PMC10776755:
Results are given in words; binding and its absence hold for the method and conditions named. Binding seen in cells or lysates may run through a third protein. Here binding means that the protein was enriched with, or labelled near, the bait; the list need not be complete.

Target: T1, TRIM39 (human (endogenous in HK-2)) (UniProt Q9HCM9)
T1 sequence: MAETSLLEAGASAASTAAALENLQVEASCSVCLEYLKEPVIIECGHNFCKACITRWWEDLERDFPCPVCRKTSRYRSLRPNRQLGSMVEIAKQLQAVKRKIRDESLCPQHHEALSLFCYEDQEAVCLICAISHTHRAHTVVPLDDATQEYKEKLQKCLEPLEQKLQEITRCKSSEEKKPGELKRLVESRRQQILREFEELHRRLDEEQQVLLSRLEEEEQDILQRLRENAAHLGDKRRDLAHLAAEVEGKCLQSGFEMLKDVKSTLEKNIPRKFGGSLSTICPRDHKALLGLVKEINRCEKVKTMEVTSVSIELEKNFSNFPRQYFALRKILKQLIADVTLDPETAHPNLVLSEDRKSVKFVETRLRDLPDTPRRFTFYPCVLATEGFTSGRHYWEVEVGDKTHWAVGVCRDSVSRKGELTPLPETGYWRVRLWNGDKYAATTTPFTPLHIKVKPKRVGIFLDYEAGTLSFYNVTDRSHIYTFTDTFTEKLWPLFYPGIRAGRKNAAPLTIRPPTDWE
Experiment: affinity purification with mass spectrometry; immunoprecipitation from lysed HK-2 cells with antibody and protein A/G, SDS-PAGE and Coomassie Brilliant Blue staining; mass spectrometry of proteins found with TRIM39

binding: binds
Substance: thioredoxin-dependent peroxide reductase (human (endogenous in HK-2))
